Our source for the binding values is article PMC6488588.

Chains of the proteins cited; added tags and fusions are not shown.
UniProt Q96CV9: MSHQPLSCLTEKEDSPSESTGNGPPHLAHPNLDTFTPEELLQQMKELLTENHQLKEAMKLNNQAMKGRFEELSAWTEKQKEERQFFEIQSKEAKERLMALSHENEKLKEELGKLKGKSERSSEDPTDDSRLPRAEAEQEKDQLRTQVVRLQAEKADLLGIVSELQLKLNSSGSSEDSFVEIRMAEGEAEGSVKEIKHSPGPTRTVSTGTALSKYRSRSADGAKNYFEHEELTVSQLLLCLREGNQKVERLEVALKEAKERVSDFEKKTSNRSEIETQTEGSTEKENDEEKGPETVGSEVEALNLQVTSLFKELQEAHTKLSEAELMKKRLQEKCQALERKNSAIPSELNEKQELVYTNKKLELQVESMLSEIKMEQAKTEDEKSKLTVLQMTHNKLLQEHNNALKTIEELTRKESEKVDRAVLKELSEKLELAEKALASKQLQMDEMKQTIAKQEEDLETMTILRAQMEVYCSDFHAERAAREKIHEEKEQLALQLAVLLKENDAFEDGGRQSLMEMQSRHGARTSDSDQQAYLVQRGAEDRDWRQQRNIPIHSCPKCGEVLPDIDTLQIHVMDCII

Results are given in words; binding and its absence hold for the method and conditions named. Binding seen in cells or lysates may run through a third protein. Some results given as binding are weak or reduced against the parent protein; the word gives no strength. Tags and fused reporters may be left off the sequences shown.

The assay addresses T1, Flag-tagged wild-type (WT) Rv1468c (Mycobacterium tuberculosis) (UniProt Q79FP0).
T1 sequence: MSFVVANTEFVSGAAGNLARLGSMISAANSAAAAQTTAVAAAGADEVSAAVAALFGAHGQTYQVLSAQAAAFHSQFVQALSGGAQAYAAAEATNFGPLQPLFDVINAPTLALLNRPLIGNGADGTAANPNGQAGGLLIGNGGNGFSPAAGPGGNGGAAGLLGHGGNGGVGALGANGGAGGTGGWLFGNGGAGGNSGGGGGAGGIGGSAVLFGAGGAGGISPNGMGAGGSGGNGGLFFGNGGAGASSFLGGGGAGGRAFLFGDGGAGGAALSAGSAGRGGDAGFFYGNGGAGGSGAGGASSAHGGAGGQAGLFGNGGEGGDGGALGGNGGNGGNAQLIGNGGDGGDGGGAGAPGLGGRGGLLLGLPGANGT
The assay can be described thus: co-IP.

Take “GFP-tagged OPTN (from UniProt Q96CV9 1-577)”: the binding entry is reported as “binds”.

For the molecule “GFP-tagged p62 (from UniProt Q13501 1-440)”, the binding result is on record as “binds”.

B1: GFP-tagged NDP52 (protein, UniProt Q13137 1-446)
chain: MEETIKDPPTSAVLLDHCHFSQVIFNSVEKFYIPGGDVTCHYTFTQHFIPRRKDWIGIFRVGWKTTREYYTFMWVTLPIDLNNKSAKQQEVQFKAYYLPKDDEYYQFCYVDEDGVVRGASIPFQFRPENEEDILVVTTQGEVEEIEQHNKELCKENQELKDSCISLQKQNSDMQAELQKKQEELETLQSINKKLELKVKEQKDYWETELLQLKEQNQKMSSENEKMGIRVDQLQAQLSTQEKEMEKLVQGDQDKTEQLEQLKKENDHLFLSLTEQRKDQKKLEQTVEQMKQNETTAMKKQQELMDENFDLSKRLSENEIICNALQRQKERLEGENDLLKRENSRLLSYMGLDFNSLPYQVPTSDEGGARQNPGLAYGNPYSGIQESSSPSPLSIKKCPICKADDICDHTLEQQQMQPLCFNCPICDKIFPATEKQIFEDHVFCHSL
As for B1, the binding entry is “binds”.
